Source: patent US10815460B2, “Three-dimensional differentiation of epiblast spheroids to kidney organoids models stage-specific epithelial physiology, morphogenesis, and disease” (THE BRIGHAM AND WOMEN'S HOSPITAL, INC., priority 2015, dated 2020)
Entries after “also recorded” stand apart in the source; their conditions may differ.

How the values were obtained:
epiblast spheroids = assay: Permeability assay with fluorescent compounds in epiblast spheroids; type: cell-based, human; conditions: for accumulation in epiblast spheroid cavities: added to the culture media for 2-4 hours; for accumulation in lumens of PODXL−/− hESC spheroids: added to the media, four hours
tubular organoids = assay: Transport of fluorescent cargoes in tubular organoids; type: cell-based, human; conditions: for accumulation and retention in kidney organoid tubules: pulse incubation followed by washout chase
Experimental: (§1) To test permeability, media was supplemented with 20 mM HEPES plus Lucifer Yellow™ carbohydrazide potassium salt (Invitrogen, 38 μM) and Rhodamine-8 isothiocyanate dextran (Sigma, 0.5 μM), and imaged by confocal microscopy. For microinjection, 5 μM rhodamine-conjugated dextran solution in mTeSR1 was diluted 1:1 with Phenol Red Solution (0.5%, Sigma) for visualization. 2 nl was microinjected via a pulled glass capillary microneedle on a Nanoject-2 micromanipulator, and monitored in real-time by wide-field epifluorescence. For TEER, 50,000 hPSCs were plated on 24-well transwell plates (Corning) pre-coated with dilute […]™. The media was gently exchanged for 10 days until cells were completely confluent. TEER was measured using an EVOM 2™ device (World Precision Instruments).
as §1, with “Rhodamine-B” for “Rhodamine-8”, “0.5” for “0.5 μM),”, “5” for “5 μM”

Row | Molecule | accumulation in epiblast spheroid cavities (epiblast spheroids) | accumulation in lumens of PODXL−/− hESC spheroids (epiblast spheroids) | persistence in cavity after microinjection (epiblast spheroids; microinjected into the spheroid cavity) | distribution relative to LRP2/megalin tubular segments (tubular organoids; fixation and co-localization) | accumulation and retention in kidney organoid tubules (tubular organoids)
1 | NNC(=O)NN1C(=O)c2cc(S(=O)(=O)[O-])cc3c(N)c(S(=O)(=O)[O-])cc(c23)C1=O.[K+].[K+] [Lucifer yellow, Lucifer Yellow™ carbohydrazide potassium salt] | gradually accumulated within cavities | accumulated within these small lumens |  |  | 
2 | Rhodamine-B isothiocyanate dextran [RD] | excluded from lumens | excluded from lumens | remained detectable for hours | enriched in tubular segments lacking LRP2/megalin | remained associated during a 24-hour washout chase
3 | fluorescein methotrexate [MTX] | not similarly enriched in hPSC spheroid cavities; also recorded: did not accumulate in hPSC lumens |  |  |  | accumulated brightly in kidney tubules
